Laboratory results published in patent US11680082B2, “Conjugates of montelukast and peptides” (ENLITISA (SHANGHAI) PHARMACEUTICAL CO., LTD, priority 2018, dated 2023).
Part of at least one peptide drawing is inferred or uncertain, most often the ends. Some compounds share one wording; it may come from a single statement. Non-standard residues stand in square brackets, D forms with d. Residues, ends and D or L forms follow the SMILES beside them. *: point of attachment. X1 = C=C(C)c1ccccc1CC[C@@H](SCC1(CC(=O)*)CC1)c1cccc(/C=C/c2ccc3ccc(Cl)cc3n2)c1; Hyp = O=C(O)[C@@H]1C[C@@H](O)CN1

Experiments:
ammonia induced cough = experiment: Antitussive experiment, ammonia induced cough method; format: in vivo, mice
Protocol: 60 mice were randomly divided into 5 groups according to their body weight: CMC-Na negative control group, dextromethorphan hydrobromide positive control group and high, medium and low doses (of Compound A, Example 1) groups. Each group contained 12 mice, 6 males and 6 females.
The test drug was administered via atomization inhalation (0.15 mL/min) for 1 min, once daily for 5 days. The positive control drug was administered once daily by intragastric administration at 10 mg/kg for 5 days.
The mice were placed in an inverted beaker 1, 2, and 4 hours after the last drug administration (either Compound A or the positive control drug). 1 mL of aqueous ammonia (25.0 to 28.0%) was placed on top of a boiling water bath and was evaporated into the beaker. The mice were stimulated by ammonia vapor for a predetermined time of 63.1, 50.1, 39.8, 31.6, 25.1, 20.0, 15.9 or 12.6 seconds. The difference in the logarithm of two adjacent stimulating times was set at 0.1, and being 1.8, 1.7, 1.6, 1.5, 1.4, 1.3, 1.2 and 1.1. The mice were then quickly moved to a bell jar. The number of coughs within 1 minute was detected with a stethoscope. Typical coughs occurring three or more times in one minute are called ‘cough’ and those occurring less than three times in one minute are ‘cough free’.
The ammonia stimulation time for the next mouse was determined according to the principle of the sequential method, i.e. if the first mouse was ‘coughing’, the next mouse was stimulated for a shorter period of time. Conversely, if the first mouse was ‘coughless’, the next mouse was stimulated for a longer period of time.
The EDT50 was defined as the ammonia stimulating time at which half mice developed a “cough” and calculated by the equation: EDT50=lg^−1c/n (c equals the […], r is the number of animals in each stimulating time group, x is the logarithm of stimulation time and n was the number of animals in each group).
Where R1=(EDT50 in treatment group/EDT50 in control group)×100%, R>130% indicates an antitussive effect. R>150% indicates a strong antitussive effect.

[1] = tested on: phenol red excretion in trachea; experiment: Expectorant experiment, phenol red excretion method; format: in vivo, mice; details: for Phenol red concentration: 5 days
Protocol: 50 Mice were randomly divided into 5 groups according to body weight: Normal saline, negative control group, ammonium chloride positive control group and high, medium and low dose of test drug (either Compound A, above, or Compound E, below). 10 mice in each group, 5 males and 5 females.
Compound A was administered via atomization inhalation (0.15 mL/min) for 1 min, once daily for 5 days and the positive control drug was administered by intragastric administration for 5 days.
Half an hour after the last administration of Compound A, 5% phenol red solution was injected into the abdominal cavity. The mice were sacrificed after a further half an hour. The skin of the neck was removed and the trachea from the thyroid cartilage to the bifurcation was separated, soaked it in 5% sodium bicarbonate solution with constant shaking. The sodium bicarbonate solution was used to detect the phenol red content.
The absorbance at 558 nm was detected by spectrophotometry (721G Spectrophotometer, Shanghai Jingke, Shanghai, China). The optical density value was used to calculate the phenol red content In the trachea by reference to the phenol red standard curve. The results of each group and the negative control group were tested for significant t-test.

[2] = tested on: LPS-induced acute lung injury; experiment: Lipopolysaccharide-induced lung injury; format: in vivo, BALB/c male mice; details: 2 mg/kg inhalation, 24 hours
[3] = tested on: bleomycin-induced lung fibrosis; experiment: Idiopathic pulmonary fibrosis (IPF) model in rats (bleomycin); format: in vivo, SD rats; details: 28 days
Protocol: 60 adult SD rats (30 male, 30 female) were purchased from Zhejiang Experimental Animal Center, China. Animals were housed at between 21 and 26° C. and at between 40 and 70% relative humidity with free access to food and water.
The rats were anaesthetized and placed on an operating table in the supine position, to expose the trachea. Bleomycin (5 mg/kg, Bleomycin Hydrochloride for Injection, Haizheng Pfizer Pharmaceutical Co., Ltd.) and saline solution were injected into the trachea through the gap between the tracheal cartilage rings.
The sham-operation group was given an equal volume of normal saline instead of bleomycin. The rats were lifted vertically immediately after administration and were rotated to allow bleomycin to evenly disperse.
Once the rats had recovered, after approximately 7 days, they were administrated different drugs according to the model plan. 6.5 mg of test compounds of the invention in powdered form was accurately dissolved in 5 mL saline to make a 1.3 mg/mL solution. 0.15 mL of the solution was atomized and inhaled by each rat. Inhalation was carried out once a day.
For the pirfenidone group, 12 pirfenidone capsules (Beijing Contini Pharmaceutical Co., Ltd., Beijing, China; 100 mg) were opened and the contents were fully suspended in 25 mL of 0.5% CMC-Na solution to obtain 48 mg/mL suspension. The dosage of pirfenidone was 1.0 mL/200 g in rats, i.e. 240 mg/kg, and was given by oral gavage.
After 28 days of administration, rats were anesthetized by intraperitoneal injection of chloral hydrate and then sacrificed. The thoracic cavity was quickly opened and whole lung tissue was removed. The lung wet weight was weighed, and the lung coefficient was calculated (lung wet weight/rat weight×1000) and are shown in Table 18 below.
The right bronchus was ligated, and the left lung was perfused with formalin solution in vitro. The left lung was cut and fixed in formalin solution for pathological examination. The remaining tissue was stored in a refrigerator at −80° C. for later use.
The fixed lung tissue was embedded in paraffin and sequential 4 μm sections were stained with haematoxylin-eosin (HE) and modified Masson's trichrome. Fibrotic lung injury was assessed morphologically by semiquantitative parameters. All morphological changes were scored according to the severity of damages. The scores were given as 1-4 according to light, mild, moderate and severe degree, respectively. No lesion was scored as 0. Evaluation from HE stained sections were the sum of degree of fibrosis and inflammation. Evaluation from Masson stained sections were the degree of collagen deposition in pulmonary interstitium.

[4] = High, 39 μg/mouse inhalation, 1 h after administration
[5] = High, 39 μg/mouse inhalation, 2 h after administration
[6] = High, 39 μg/mouse inhalation, 4 h after administration
[7] = Low, 975 μg/mouse inhalation, 1 h after administration
[8] = Low, 975 μg/mouse inhalation, 2 h after administration
[9] = Low, 975 μg/mouse inhalation, 4 h after administration
[10] = Medium, 195 μg/mouse inhalation, 1 h after administration
[11] = Medium, 195 μg/mouse inhalation, 2 h after administration
[12] = Medium, 195 μg/mouse inhalation, 4 h after administration
[13] = atomization inhalation once daily for 5 days

Question: With `C=C(C)c1ccccc1CC[C@@H](SCC1(CC(=O)N[C@@H](C)C(=O)N[C@@H](CCCCN)C(=O)N2CCC[C@H]2C(=O)N[C@@H](CO)C(=O)N[C@@H](Cc2ccc(O)cc2)C(=O)N2C[C@H](O)C[C@H]2C(=O)N2C[C@H](O)C[C@H]2C(=O)N[C@H](C(=O)N[C@@H](Cc2ccc(O)cc2)C(=O)N[C@@H](CCCCN)C(=O)O)[C@@H](C)O)CC1)c1cccc(/C=C/c2ccc3ccc(Cl)cc3n2)c1` [Compound A, Montelukast Styrene-Ala-Lys-Pro-Ser-Tyr-Hyp-Hyp-Thr-Tyr-Lys] (X1-AKPSY[Hyp][Hyp]TYK-OH) as the compound, how does the EDT50/s (ammonia induced cough; [4]) read?
Answer: The EDT50/s was 28.2 s.

Question: What about the R1/% (ammonia induced cough; [4]) of the same compound?
Answer: Its R1/% is 135.9%.

Question: And the EDT50/s (ammonia induced cough; [5])?
Answer: The EDT50/s was 29.3 s.

Question: And the R1/% (ammonia induced cough; [5])?
Answer: The R1/% was 135.9%.

Question: What about the EDT50/s (ammonia induced cough; [6]) of the same compound?
Answer: The EDT50/s was 26.1 s.

Question: And the R1/% (ammonia induced cough; [6])?
Answer: The R1/% was 116.6%.

Question: And the EDT50/s (ammonia induced cough; [7])?
Answer: Its EDT50/s is 43.0 s.

Question: And the R1/% (ammonia induced cough; [7])?
Answer: Its R1/% is 207.3%.

Question: And the EDT50/s (ammonia induced cough; [8])?
Answer: The EDT50/s was 46.4 s.

Question: And the R1/% (ammonia induced cough; [8])?
Answer: The R1/% was 215.4%.

Question: What about the EDT50/s (ammonia induced cough; [9]) of the same compound?
Answer: Its EDT50/s is 43.0 s.

Question: And the R1/% (ammonia induced cough; [9])?
Answer: The R1/% was 192.0%.

Question: And the EDT50/s (ammonia induced cough; [10])?
Answer: Its EDT50/s is 34.1 s.

Question: And the R1/% (ammonia induced cough; [10])?
Answer: The R1/% was 164.7%.

Question: And the EDT50/s (ammonia induced cough; [11])?
Answer: The EDT50/s was 39.8 s.

Question: And the R1/% (ammonia induced cough; [11])?
Answer: Its R1/% is 184.8%.

Question: And the EDT50/s (ammonia induced cough; [12])?
Answer: Its EDT50/s is 39.8 s.

Question: And the R1/% (ammonia induced cough; [12])?
Answer: The R1/% was 177.8%.

Question: And the cough relief (ammonia induced cough; [13])?
Answer: Its cough relief is “positive effect on cough relief”.

Question: And the “Phenol red concentration” value ([1]; High, 39 μg/mouse inhalation)?
Answer: Its value is 9.001 ± 0.637 µg/mL.

Question: And the “Phenol red concentration” value ([1]; Low, 975 μg/mouse inhalation)?
Answer: Its value is 10.489 ± 0.610 µg/mL.

Question: What about the “Phenol red concentration” value ([1]; Medium, 195 μg/mouse inhalation) of the same compound?
Answer: The value was 10.480 ± 0.550 µg/mL.

Question: What about the “mucus production, sputum” value [1, 13] of the same compound?
Answer: The value was “reduces mucus production”.

Question: What about the “IL-1β concentration in lung tissue” value [2] of the same compound?
Answer: The value was “the same level as in low dose group for Compound G”.

Question: And the lung edema ([3]; 2 mg/kg inhalation)?
Answer: The lung edema was “reduce lung edema caused by bleomycin induction”.

Question: And the “lung fibrosis, pathological changes” value ([3]; 2 mg/kg inhalation, compared with pirfenidone)?
Answer: The value was “prevent bleomycin-induced lung fibrosis”.

Question: And the “Lung coefficient (%)” value ([3]; compounds 2 mg/kg inhalation, pirfenidone 240 mg/kg gavage, lung wet weight/rat weight×1000)?
Answer: The value was 8.771 ± 0.897 ‰ (mg/g).

Question: And the “Masson evaluation Mean” value ([3]; score, collagen deposition in pulmonary interstitium)?
Answer: The value was 2.25.

Question: What about the “HE evaluation Mean” value ([3]; score, sum of degree of fibrosis and inflammation) of the same compound?
Answer: The value was 4.00.
